According to US20210040206A1:
These are yes or no findings as the source states them, for the method shown. Some binding calls cover weakened binding; strength is not graded here.

The chains behind the UniProt entries cited, without tags or fusion partners. Where a name states a change or a piece, a line headed by the entry shows the natural chain unless it says otherwise.
UniProt P78324: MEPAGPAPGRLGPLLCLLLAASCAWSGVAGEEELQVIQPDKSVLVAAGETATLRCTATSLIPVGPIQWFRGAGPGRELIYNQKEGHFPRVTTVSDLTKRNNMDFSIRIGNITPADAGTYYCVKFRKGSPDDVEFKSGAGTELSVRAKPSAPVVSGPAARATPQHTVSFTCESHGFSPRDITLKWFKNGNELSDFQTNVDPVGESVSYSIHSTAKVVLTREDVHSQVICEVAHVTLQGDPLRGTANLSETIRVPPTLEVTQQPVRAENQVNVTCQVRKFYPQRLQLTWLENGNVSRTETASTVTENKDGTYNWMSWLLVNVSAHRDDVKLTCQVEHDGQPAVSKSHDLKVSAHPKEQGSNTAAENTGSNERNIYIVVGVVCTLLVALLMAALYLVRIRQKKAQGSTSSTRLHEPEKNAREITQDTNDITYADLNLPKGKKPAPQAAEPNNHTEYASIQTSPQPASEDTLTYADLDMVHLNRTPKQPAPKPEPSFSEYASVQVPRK

Legend:
Experiment in all cases: ELISA, SIRPa variant-mouse Fc immobilised at 0.5 ug/ml
[1] = biological target: SIRPa V3 (SNP1 + 2 + 3 + 4 + 5 + 6) recombinant protein, extracellular domain fused with mouse Fc from IgG2a (human; mouse) (UniProt P78324)
[2] = biological target: SIRPa V6 (SNP12 + 13) recombinant protein, extracellular domain fused with mouse Fc from IgG2a (human; mouse) (UniProt P78324)
[3] = biological target: SIRPa V5 (SNP9 + 10 + 11) recombinant protein, extracellular domain fused with mouse Fc from IgG2a (human; mouse) (UniProt P78324)
[4] = biological target: SIRPa V4 (SNP8) recombinant protein, extracellular domain fused with mouse Fc from IgG2a (human; mouse) (UniProt P78324)
[5] = biological target: SIRPa V7 (SNP14 + ?) recombinant protein, extracellular domain fused with mouse Fc from IgG2a (human; mouse) (UniProt P78324)

Measured: binding

B1: in-house anti-human SIRPa v1 antibody (antibody, human IgG4, V domains shown)
VH: EVQLVQSGAEVKKPGESLRISCKASGYSFTSYWVHWVRQMPGKGLEWMGNIDPSDSDTHYSPSFQGHVTLSVDKSISTAYLQLSSLKASDTAMYYCVRGGTGTLAYFAYWGQGTLVTVSS
VL: DVVMTQSPLSLPVTLGQPASISCRSSQSLVHSYGNTYLYWFQQRPGQSPRLLIYRVSNRFSGVPDRFSGSGSGTDFTLKISRVEAEDVGVYYCFQGTHVPYTFGGGTKVEIK
binds: all assays above
